{"source": "patent US12576253B2", "about": "“Drug delivery device with intravesical tolerability” (priority 2009, dated 2026)", "conditions": "rabbit, 2 mg device for three days or 4 mg device for six days, ELISA", "data": [{"smiles": "CCN(CC)CC(=O)Nc1c(C)cccc1C", "note": "[lidocaine]", "values": [{"measurement": "lidocaine/tissue concentration in bladder tissue and nearby genitourinary sites (kidneys, ureters, penile urethra)", "result": "higher concentrations"}, {"measurement": "lidocaine/tissue concentration in further sites (heart, spinal cord)", "result": "lower concentrations"}]}]}
